# Test results taken from the supplement of paper PMC8728848.
# Some of the results follow.
# Legend:
# Experiment in all cases: glycan array binding signal (z-score within array); higher = stronger binding
# Details in all cases: glycan notation: IUPAC condensed, linker removed
# [1] = molecular target: Neu5Ac(a2-3)Gal(b1-3)[Fuc(a1-4)]GlcNAc
# Summary of the method: (§1)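 Arrays were curated from the Consortium for Functional Glycomics database, 3228 in total, and kept only where the protein sequence was available. Binding is expressed as a within-array Z-score. This score was averaged across arrays of the same protein sequence at different concentrations or buffers and across linkers, and negative values can be read as non-binding.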
# [2] = molecular target: Neu5Ac(a2-3)Gal(b1-3)[Fuc(a1-4)]GlcNAc(b1-3)Gal(b1-3)[Fuc(a1-4)]GlcNAc
# Summary of the method: as §1
# [3] = molecular target: Neu5Ac(a2-3)Gal(b1-3)[Fuc(a1-4)]GlcNAc(b1-3)Gal(b1-4)[Fuc(a1-3)]GlcNAc
# Summary of the method: as §1
# [4] = molecular target: Neu5Ac(a2-3)Gal(b1-3)[GlcNAc(b1-6)]GalNAc
# Summary of the method: as §1
# [5] = molecular target: Neu5Ac(a2-3)Gal(b1-3)[Neu5Ac(a2-6)]GalNAc
# Summary of the method: as §1
# [6] = molecular target: Neu5Ac(a2-3)Gal(b1-3)[Neu5Ac(a2-6)]GlcNAc(b1-3)[Fuc(a1-3)[Gal(b1-4)]GlcNAc(b1-6)]Gal(b1-4)Glc
# Summary of the method: as §1
# [7] = molecular target: Neu5Ac(a2-3)Gal(b1-3)]Neu5Ac(a2-3)Gal(b1-4)]GlcNAc
# Summary of the method: as §1
# Neu5Ac(a2-3)Gal(b1-4)Glc = molecular target: Neu5Ac(a2-3)Gal(b1-4)Glc
# Summary of the method: as §1
# [8] = molecular target: Neu5Ac(a2-3)Gal(b1-4)GlcNAc
# Summary of the method: as §1
# [9] = molecular target: Neu5Ac(a2-3)Gal(b1-4)GlcNAc(b1-2)Man
# Summary of the method: as §1
# [10] = molecular target: Neu5Ac(a2-3)Gal(b1-4)GlcNAc(b1-2)Man(a1-3)[GlcNAc(b1-4)][Neu5Ac(a2-3)Gal(b1-4)GlcNAc(b1-2)Man(a1-6)]Man(b1-4)GlcNAc(b1-4)GlcNAc
# Summary of the method: as §1
# [11] = molecular target: Neu5Ac(a2-3)Gal(b1-4)GlcNAc(b1-2)Man(a1-3)[Neu5Ac(a2-3)Gal(b1-4)GlcNAc(b1-2)Man(a1-6)]Man(b1-4)GlcNAc(b1-4)GlcNAc
# Summary of the method: as §1
# [12] = molecular target: Neu5Ac(a2-3)Gal(b1-4)GlcNAc(b1-2)Man(a1-3)[Neu5Ac(a2-3)Gal(b1-4)GlcNAc(b1-2)Man(a1-6)]Man(b1-4)GlcNAc(b1-4)[Fuc(a1-6)]GlcNAc
# Summary of the method: as §1
# [13] = molecular target: Neu5Ac(a2-3)Gal(b1-4)GlcNAc(b1-2)Man(a1-3)[Neu5Ac(a2-6)Gal(b1-4)GlcNAc(b1-2)Man(a1-6)]Man(b1-4)GlcNAc(b1-4)GlcNAc
# Summary of the method: as §1
# [14] = molecular target: Neu5Ac(a2-3)Gal(b1-4)GlcNAc(b1-2)[Neu5Ac(a2-3)Gal(b1-4)GlcNAc(b1-4)]Man(a1-3)[GlcNAc(b1-4)][Neu5Ac(a2-3)Gal(b1-4)GlcNAc(b1-2)[Neu5Ac(a2-3)Gal(b1-4)GlcNAc(b1-6)]Man(a1-6)]Man(b1-4)GlcNAc(b1-4)GlcNAc
# Summary of the method: as §1
# [15] = molecular target: Neu5Ac(a2-3)Gal(b1-4)GlcNAc(b1-2)[Neu5Ac(a2-3)Gal(b1-4)GlcNAc(b1-4)]Man(a1-3)[GlcNAc(b1-4)][Neu5Ac(a2-3)Gal(b1-4)GlcNAc(b1-4)Man(a1-6)]Man(b1-4)GlcNAc(b1-4)GlcNAc
# Summary of the method: as §1
# [16] = molecular target: Neu5Ac(a2-3)Gal(b1-4)GlcNAc(b1-2)[Neu5Ac(a2-3)Gal(b1-4)GlcNAc(b1-6)]Man(a1-6)[Neu5Ac(a2-3)Gal(b1-4)GlcNAc(b1-2)Man(a1-3)]Man(b1-4)GlcNAc(b1-4)GlcNAc
# Summary of the method: as §1
# [17] = molecular target: Neu5Ac(a2-3)Gal(b1-4)GlcNAc(b1-2)[Neu5Ac(a2-3)Gal(b1-4)GlcNAc(b1-6)]Man(a1-6)[Neu5Ac(a2-3)Gal(b1-4)GlcNAc(b1-2)Man(a1-3)][GlcNAc(b1-4)]Man(b1-4)GlcNAc(b1-4)GlcNAc
# Summary of the method: as §1
# [18] = molecular target: Neu5Ac(a2-3)Gal(b1-4)GlcNAc(b1-3)Gal
# Summary of the method: as §1
# [19] = molecular target: Neu5Ac(a2-3)Gal(b1-4)GlcNAc(b1-3)Gal(b1-3)GlcNAc
# Summary of the method: as §1
# [20] = molecular target: Neu5Ac(a2-3)Gal(b1-4)GlcNAc(b1-3)Gal(b1-4)GlcNAc
# Summary of the method: as §1
# [21] = molecular target: Neu5Ac(a2-3)Gal(b1-4)GlcNAc(b1-3)Gal(b1-4)GlcNAc(b1-2)Man(a1-3)[Neu5Ac(a2-3)Gal(b1-4)GlcNAc(b1-3)Gal(b1-4)GlcNAc(b1-2)Man(a1-6)]Man(b1-4)GlcNAc(b1-4)GlcNAc
# Summary of the method: as §1
# [22] = molecular target: Neu5Ac(a2-3)Gal(b1-4)GlcNAc(b1-3)Gal(b1-4)GlcNAc(b1-3)Gal(b1-4)GlcNAc
# Summary of the method: as §1
# [23] = molecular target: Neu5Ac(a2-3)Gal(b1-4)GlcNAc(b1-3)Gal(b1-4)GlcNAc(b1-3)Gal(b1-4)GlcNAc(b1-2)Man(a1-3)[Neu5Ac(a2-3)Gal(b1-4)GlcNAc(b1-3)Gal(b1-4)GlcNAc(b1-3)Gal(b1-4)GlcNAc(b1-2)Man(a1-6)]GalNAc
# Summary of the method: as §1
# [24] = molecular target: Neu5Ac(a2-3)Gal(b1-4)GlcNAc(b1-3)Gal(b1-4)GlcNAc(b1-3)GalNAc
# Summary of the method: as §1
# [25] = molecular target: Neu5Ac(a2-3)Gal(b1-4)GlcNAc(b1-3)Gal(b1-4)GlcNAc(b1-3)[Neu5Ac(a2-3)Gal(b1-4)GlcNAc(b1-3)Gal(b1-4)GlcNAc(b1-6)]GalNAc
# Summary of the method: as §1
# [26] = molecular target: Neu5Ac(a2-3)Gal(b1-4)GlcNAc(b1-3)Gal(b1-4)GlcNAc(b1-6)[Gal(b1-3)]GalNAc
# Summary of the method: as §1
# [27] = molecular target: Neu5Ac(a2-3)Gal(b1-4)GlcNAc(b1-3)Gal(b1-4)[Fuc(a1-3)]GlcNAc
# Summary of the method: as §1
# [28] = molecular target: Neu5Ac(a2-3)Gal(b1-4)GlcNAc(b1-3)GalNAc
# Summary of the method: as §1
# [29] = molecular target: Neu5Ac(a2-3)Gal(b1-4)GlcNAc(b1-3)[Neu5Ac(a2-3)Gal(b1-4)GlcNAc(b1-6)]GalNAc
# Summary of the method: as §1
binder,measurement,setting,value
"SfaEH (Escherichia coli), Q1RDG5 (protein) LLCRNNQTGQVFNSGDTSFRVNVSPVVQYDKSISVLDLSQLVSCQNEDSTGQNYDYLKILKGSGFSPALDTKTYGRLDFTSRPTGYARQLPLQFDLQVTEAFYQYGVWKPFPAKLYLYPAPGVFGKVINNGDLLATLYVNKFSTKGQEAGERNFTWRFYATNDVYIQTGTCRVSSNNVKVDLPSYPGGPVTVPLTVRCDQTQSVSYTLSGPVTGSGNTVFANTAASGSGGVGIQLSDNVGPVPAGQPRSLGQVGSSPVSLGLKASYALTGQASPTPGAVQSVINVTFSYN",glycan array binding signal (z-score),[1],0.837
same,glycan array binding signal (z-score),[2],1.59
same,glycan array binding signal (z-score),[3],0.156
same,glycan array binding signal (z-score),[4],1.67
same,glycan array binding signal (z-score),[5],-0.374
same,glycan array binding signal (z-score),[6],0.244
same,glycan array binding signal (z-score),[7],0.602
same,glycan array binding signal (z-score),Neu5Ac(a2-3)Gal(b1-4)Glc,0.596
same,glycan array binding signal (z-score),[8],0.437
same,glycan array binding signal (z-score),[9],0.031
same,glycan array binding signal (z-score),[10],-0.131
same,glycan array binding signal (z-score),[11],-0.17
same,glycan array binding signal (z-score),[12],0.008
same,glycan array binding signal (z-score),[13],0.07
same,glycan array binding signal (z-score),[14],-0.316
same,glycan array binding signal (z-score),[15],-0.096
same,glycan array binding signal (z-score),[16],0.024
same,glycan array binding signal (z-score),[17],-0.828
same,glycan array binding signal (z-score),[18],1.05
same,glycan array binding signal (z-score),[19],-0.362
same,glycan array binding signal (z-score),[20],-0.81
same,glycan array binding signal (z-score),[21],0.71
same,glycan array binding signal (z-score),[22],7.11
same,glycan array binding signal (z-score),[23],0.267
same,glycan array binding signal (z-score),[24],1.1
same,glycan array binding signal (z-score),[25],0.688
same,glycan array binding signal (z-score),[26],-0.13
same,glycan array binding signal (z-score),[27],-0.494
same,glycan array binding signal (z-score),[28],-0.56
same,glycan array binding signal (z-score),[29],-0.154

# Some of the entries above, set out differently:
binder | measurement | setting | value
SfaEH (Escherichia coli), Q1RDG5 (protein) LLCRNNQTGQVFNSGDTSFRVNVSPVVQYDKSISVLDLSQLVSCQNEDSTGQNYDYLKILKGSGFSPALDTKTYGRLDFTSRPTGYARQLPLQFDLQVTEAFYQYGVWKPFPAKLYLYPAPGVFGKVINNGDLLATLYVNKFSTKGQEAGERNFTWRFYATNDVYIQTGTCRVSSNNVKVDLPSYPGGPVTVPLTVRCDQTQSVSYTLSGPVTGSGNTVFANTAASGSGGVGIQLSDNVGPVPAGQPRSLGQVGSSPVSLGLKASYALTGQASPTPGAVQSVINVTFSYN | glycan array binding signal (z-score) | [26] | -0.13
same | glycan array binding signal (z-score) | [27] | -0.494
